Test results as given in patent US7371728B2 (Kaohsiung Medical University, priority 2005, dated 2008).
Square brackets hold non-standard residues; d marks the D form. Ends that are not written are not given here. * marks the point of attachment. FITC = O=C1OC2(c3ccc(O)cc3Oc3cc(O)ccc32)c2ccc(NC(=S)*)cc21; Hyp = O=C(O)[C@@H]1C[C@@H](O)CN1; Chg = N[C@H](C(=O)O)C1CCCCC1

Assay: general procedure: Fmoc solid-phase peptide synthesis; Rink Amide resin; PyBOP / NMM
Settings: whole synthesis, scale 0.1 mmole

With G[Hyp]AS[Chg]QSLMK(FITC)C-NH2 the crude mass was 129.4 mg and the crude yield was 83%.
